In paper PMC13193388, “Dimerization‐dependent NOTCH receptor transactivation unveils a class of highly selective NOTCH signalling inhibitors” (The Febs Journal, 2025):
These are yes or no findings as the source states them, for the method shown. In cells and extracts the contact can be indirect. Some binding calls cover weakened binding; strength is not graded here.

Protein sequences, listed by entry. Tags and fused reporters are not part of them. Residues count along the entry.
UniProt Q9UM47, residues 40-2321: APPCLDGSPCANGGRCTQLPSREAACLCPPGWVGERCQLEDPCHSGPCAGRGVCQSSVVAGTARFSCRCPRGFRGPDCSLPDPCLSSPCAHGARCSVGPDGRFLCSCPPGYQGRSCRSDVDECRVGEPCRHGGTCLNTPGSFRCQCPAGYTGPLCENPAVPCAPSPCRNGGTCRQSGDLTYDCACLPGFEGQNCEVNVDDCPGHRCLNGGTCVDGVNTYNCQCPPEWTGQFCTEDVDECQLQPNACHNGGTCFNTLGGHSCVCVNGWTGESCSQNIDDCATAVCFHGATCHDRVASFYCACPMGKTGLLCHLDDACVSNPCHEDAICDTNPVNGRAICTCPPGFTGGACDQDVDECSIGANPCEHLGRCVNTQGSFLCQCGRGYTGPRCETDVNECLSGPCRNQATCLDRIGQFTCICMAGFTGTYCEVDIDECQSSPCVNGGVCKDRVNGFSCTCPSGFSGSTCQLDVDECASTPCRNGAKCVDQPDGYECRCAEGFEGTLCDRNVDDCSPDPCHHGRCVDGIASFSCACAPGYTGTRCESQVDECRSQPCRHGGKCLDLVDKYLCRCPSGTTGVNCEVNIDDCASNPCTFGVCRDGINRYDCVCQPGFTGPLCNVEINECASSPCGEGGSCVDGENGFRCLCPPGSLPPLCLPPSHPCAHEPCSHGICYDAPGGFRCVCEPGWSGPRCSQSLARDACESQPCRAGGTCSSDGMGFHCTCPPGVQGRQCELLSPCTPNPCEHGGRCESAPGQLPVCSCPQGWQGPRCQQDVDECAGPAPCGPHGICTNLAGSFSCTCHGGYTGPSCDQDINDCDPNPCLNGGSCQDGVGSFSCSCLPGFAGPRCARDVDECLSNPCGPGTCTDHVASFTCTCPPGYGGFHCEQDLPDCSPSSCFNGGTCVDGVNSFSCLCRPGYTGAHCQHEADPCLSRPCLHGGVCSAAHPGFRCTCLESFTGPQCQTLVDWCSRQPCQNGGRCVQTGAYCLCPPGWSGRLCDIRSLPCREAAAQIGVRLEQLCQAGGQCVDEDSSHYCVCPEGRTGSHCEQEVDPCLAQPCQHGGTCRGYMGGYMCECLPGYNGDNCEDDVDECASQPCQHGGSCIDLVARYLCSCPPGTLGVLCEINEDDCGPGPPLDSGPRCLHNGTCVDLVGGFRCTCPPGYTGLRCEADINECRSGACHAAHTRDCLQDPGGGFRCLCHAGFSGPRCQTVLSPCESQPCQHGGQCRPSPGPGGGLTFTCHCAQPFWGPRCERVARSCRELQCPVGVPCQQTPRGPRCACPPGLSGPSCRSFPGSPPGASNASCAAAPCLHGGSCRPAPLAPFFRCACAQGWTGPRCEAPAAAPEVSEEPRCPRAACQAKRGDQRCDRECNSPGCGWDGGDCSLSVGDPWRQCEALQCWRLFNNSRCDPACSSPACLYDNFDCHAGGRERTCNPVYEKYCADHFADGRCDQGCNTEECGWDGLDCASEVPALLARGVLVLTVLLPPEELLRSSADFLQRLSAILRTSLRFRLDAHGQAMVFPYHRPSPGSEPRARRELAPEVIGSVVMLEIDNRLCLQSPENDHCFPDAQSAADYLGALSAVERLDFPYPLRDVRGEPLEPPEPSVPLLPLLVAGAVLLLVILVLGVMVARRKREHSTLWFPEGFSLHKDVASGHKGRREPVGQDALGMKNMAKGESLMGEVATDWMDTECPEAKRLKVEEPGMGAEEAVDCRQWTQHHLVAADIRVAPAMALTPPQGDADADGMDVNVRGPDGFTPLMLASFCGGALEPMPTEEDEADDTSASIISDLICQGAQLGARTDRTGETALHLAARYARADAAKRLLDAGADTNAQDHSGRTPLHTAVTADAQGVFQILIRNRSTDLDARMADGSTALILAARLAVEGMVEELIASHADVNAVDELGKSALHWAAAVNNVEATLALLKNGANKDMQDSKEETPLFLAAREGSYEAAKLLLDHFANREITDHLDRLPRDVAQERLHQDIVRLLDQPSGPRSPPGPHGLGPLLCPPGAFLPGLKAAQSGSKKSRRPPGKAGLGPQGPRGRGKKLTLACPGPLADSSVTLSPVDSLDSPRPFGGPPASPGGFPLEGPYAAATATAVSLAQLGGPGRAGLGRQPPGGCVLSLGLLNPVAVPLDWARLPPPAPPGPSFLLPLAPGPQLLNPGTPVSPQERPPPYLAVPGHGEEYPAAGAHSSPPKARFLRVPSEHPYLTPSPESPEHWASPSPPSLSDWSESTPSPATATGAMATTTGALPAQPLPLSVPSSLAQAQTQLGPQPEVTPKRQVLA

Biological target: HA epitope-tagged full-length NOTCH3 (human) (UniProt Q9UM47)
Assay: cross-linking + co-IP; cell surface ligand–receptor binding assay: 293T cells stably expressing HA epitope-tagged receptor incubated with HIS epitope-tagged ligand 1 h at 4 °C, with or without peptides (10 μM), cross-linked with DSS and BS3, lysed, HA immunoprecipitation, Western blot; only the binder purified

EKYCADHFADGR [N34 peptide]
binding: binds
